According to PMC6221362:
No constants are given. Whether binding was seen depends on the method and setting. Binding seen in cells or lysates may run through a third protein.

The chains behind the UniProt entries cited, without tags or fusion partners.
UniProt Q61545: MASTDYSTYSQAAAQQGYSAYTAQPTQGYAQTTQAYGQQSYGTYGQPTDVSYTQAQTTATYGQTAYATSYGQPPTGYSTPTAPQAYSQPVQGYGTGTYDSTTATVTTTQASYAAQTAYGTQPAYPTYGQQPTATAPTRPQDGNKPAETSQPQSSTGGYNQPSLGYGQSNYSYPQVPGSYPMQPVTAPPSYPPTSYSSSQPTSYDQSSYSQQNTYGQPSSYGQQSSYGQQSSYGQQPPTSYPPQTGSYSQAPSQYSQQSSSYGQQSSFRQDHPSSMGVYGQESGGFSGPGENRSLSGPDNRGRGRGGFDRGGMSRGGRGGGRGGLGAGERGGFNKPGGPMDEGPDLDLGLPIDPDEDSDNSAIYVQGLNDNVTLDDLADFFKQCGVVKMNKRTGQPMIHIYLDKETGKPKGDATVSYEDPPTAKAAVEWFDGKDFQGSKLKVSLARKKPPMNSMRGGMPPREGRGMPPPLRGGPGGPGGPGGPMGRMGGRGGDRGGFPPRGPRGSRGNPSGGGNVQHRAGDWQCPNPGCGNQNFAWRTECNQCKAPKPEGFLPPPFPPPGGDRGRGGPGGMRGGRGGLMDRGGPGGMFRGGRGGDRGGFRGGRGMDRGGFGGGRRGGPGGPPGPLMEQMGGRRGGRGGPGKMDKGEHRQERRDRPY
UniProt Q9CWW7: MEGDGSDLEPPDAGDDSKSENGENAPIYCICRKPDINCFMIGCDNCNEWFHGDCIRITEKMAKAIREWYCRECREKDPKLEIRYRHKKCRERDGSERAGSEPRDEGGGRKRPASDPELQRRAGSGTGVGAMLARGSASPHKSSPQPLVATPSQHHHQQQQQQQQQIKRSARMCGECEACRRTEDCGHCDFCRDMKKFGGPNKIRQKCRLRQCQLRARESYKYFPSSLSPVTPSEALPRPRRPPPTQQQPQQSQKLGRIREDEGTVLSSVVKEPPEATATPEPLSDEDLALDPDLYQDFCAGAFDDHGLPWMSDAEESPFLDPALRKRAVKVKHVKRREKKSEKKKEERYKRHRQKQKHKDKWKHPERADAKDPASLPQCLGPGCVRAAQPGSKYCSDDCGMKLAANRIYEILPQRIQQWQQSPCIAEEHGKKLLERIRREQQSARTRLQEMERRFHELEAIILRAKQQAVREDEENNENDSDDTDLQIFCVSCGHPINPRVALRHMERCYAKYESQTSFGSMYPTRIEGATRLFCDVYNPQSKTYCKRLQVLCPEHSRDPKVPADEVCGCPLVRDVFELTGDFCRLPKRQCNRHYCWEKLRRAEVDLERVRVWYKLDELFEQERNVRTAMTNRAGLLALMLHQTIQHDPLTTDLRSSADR

What was measured:
[1] = biological target: EWSR1 (mouse (endogenous in 14 dpp B6 testis)) (UniProt Q61545); experiment: co-IP; 14 dpp B6 testicular extract; co-IP with anti-EWSR1, with and without DNase I treatment; western blot for EWSR1 and CXXC1; non-immune IgG as control
[2] = biological target: HA-tagged EWSR1 (mouse) (UniProt Q61545); experiment: co-IP; Myc-CXXC1, HA-EWSR1 and Flag-PRDM9 co-expressed in HEK293 cells; extract in Pierce IP buffer; antibodies against HA or Myc on protein G Dynabeads, overnight at 4°C; western blot for HA, Myc and Flag; with or without PRDM9

Row | binding [1] | binding [2] | Substance
1 | no binding |  | CxxC finger protein 1 (CXXC1) (from UniProt Q9CWW7 1-660)
2 |  | no binding | Myc-tagged mouse CXXC1 (from UniProt Q9CWW7 1-660)
